At least one compound was matched to its structure with a doubt left.
System: rats
Test: Abortive test on rats s.c. and p.o.
Type: in vivo, rat
Description: The tests below were all performed on rats according to known methods.
Abortive test s.c. and p.o.: See, for example, EP-A 0 283 428.

## CC#C[C@]1(O)CC[C@H]2[C@@H]3CCC4=CC(=O)CCC4=C3[C@@H](c3ccc(N(C)C)cc3)C[C@@]21C [D, 11β-[4-(Dimethylamino)phenyl]-17β-hydroxy-17α-(1-propinyl)estra-4,9-dien-3-one, reference compound]
Dose 0.3 mg/animal/day
  Abortive test on rats p.o. (n abortion/n total): (0/4)
  Abortive test on rats s.c. (n abortion/n total): (0/6)
Dose 1 mg/animal/day
  Abortive test on rats p.o. (n abortion/n total): (2/4)
  Abortive test on rats s.c. (n abortion/n total): (3/4)
Dose 3 mg/animal/day
  Abortive test on rats p.o. (n abortion/n total): (4/4)
  Abortive test on rats s.c. (n abortion/n total): (4/4)
